Laboratory results taken from patent publication EP0107208A1, “1,1,2-Triphenyl-but-1-ene derivatives, process for their preparation and their use as medicines” (Klinge Pharma GmbH, priority 1982, dated 1984).

Molecular target: T1, Estradiolrezeptor (Oryctolagus cuniculus, UniProt G1SML6)
T1 construct: Das Uteruscytosol von weiblichen, präpubertären, weißen 2 kg schweren Kaninchen (Neuseeländer); from tissue; host or cells: uterus cytosol of female prepubertal New Zealand white rabbits
T1 sequence (G1SML6 1-598): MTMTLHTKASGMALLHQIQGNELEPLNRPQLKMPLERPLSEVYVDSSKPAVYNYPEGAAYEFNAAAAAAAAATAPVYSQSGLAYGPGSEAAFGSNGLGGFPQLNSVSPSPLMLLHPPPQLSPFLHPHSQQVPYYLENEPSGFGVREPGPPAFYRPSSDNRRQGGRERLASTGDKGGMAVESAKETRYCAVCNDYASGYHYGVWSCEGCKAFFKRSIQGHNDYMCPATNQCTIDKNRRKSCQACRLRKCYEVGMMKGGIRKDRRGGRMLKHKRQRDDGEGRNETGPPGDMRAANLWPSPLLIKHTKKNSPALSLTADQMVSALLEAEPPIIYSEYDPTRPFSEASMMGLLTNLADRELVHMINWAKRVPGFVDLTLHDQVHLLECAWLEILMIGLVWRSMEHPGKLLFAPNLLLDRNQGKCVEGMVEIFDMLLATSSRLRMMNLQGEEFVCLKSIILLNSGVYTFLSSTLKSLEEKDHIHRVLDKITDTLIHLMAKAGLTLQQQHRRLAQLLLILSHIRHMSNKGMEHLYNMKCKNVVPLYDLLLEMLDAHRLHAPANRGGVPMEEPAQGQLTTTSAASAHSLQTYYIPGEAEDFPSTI
Assay: Binding affinity to the estradiol receptor: displacement of [3H]-estradiol in rabbit uterus cytosol
Set-up: species or system Kaninchen (Neuseeländer)
From the text: Die Messung der Eindungsaffinität zum Estradiolrezeptor erfolgte nach der Eethode von N. Devleeschouwer, G. Leclercq, A. Danguy und J. C. Heuson LEurop. J. Cancer, 14 ,721 - 723 (197o)].
Testsubstanz verschiedener Konzentration inkubiert.Die Bindungsaffinität zum Estradiolrezeptor wird ausgedrückt durch die aen. […] Testsubstanz, welche eine 5C-prcz.

## CC/C(=C(\c1ccccc1)c1ccc(OCCN(C)C)cc1)c1ccccc1 [Tamoxifen, (Z)-1-[4'-(2-Dimetrylaminoethcxy)phenyl]-1,2-diphenyl-but-1-en, reference compound]
  IC50: 250 nM
